For the test, the target named is GLT-1, endogenous in DIV14 hippocampal culture (rat (endogenous in hippocampal culture)) (UniProt P31596). In words: proximity ligation; In situ PLA in fixed DIV14 hippocampal cultures with anti-GLT and anti-Nischarin primary antibodies; single primary antibody as control; untreated or glutamate (100 uM, 1 h), which increased the puncta.

By UniProt entry, the sequences of proteins in these tests, tags left out.
UniProt P31596: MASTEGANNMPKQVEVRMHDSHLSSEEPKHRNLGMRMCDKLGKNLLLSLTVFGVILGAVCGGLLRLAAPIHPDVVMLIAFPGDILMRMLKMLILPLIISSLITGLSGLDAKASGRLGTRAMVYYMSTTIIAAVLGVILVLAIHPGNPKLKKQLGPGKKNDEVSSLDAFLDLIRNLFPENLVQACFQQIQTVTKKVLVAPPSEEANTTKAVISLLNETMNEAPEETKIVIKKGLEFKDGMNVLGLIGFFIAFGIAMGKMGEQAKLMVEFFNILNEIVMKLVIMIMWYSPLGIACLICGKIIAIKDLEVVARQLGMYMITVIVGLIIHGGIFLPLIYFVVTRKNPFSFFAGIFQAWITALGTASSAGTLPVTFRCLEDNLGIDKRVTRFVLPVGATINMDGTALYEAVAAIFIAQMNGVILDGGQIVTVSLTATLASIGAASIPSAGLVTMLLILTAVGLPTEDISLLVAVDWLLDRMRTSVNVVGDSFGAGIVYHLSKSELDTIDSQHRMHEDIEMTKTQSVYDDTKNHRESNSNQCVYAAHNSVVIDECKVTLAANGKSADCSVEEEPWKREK
UniProt Q4G017: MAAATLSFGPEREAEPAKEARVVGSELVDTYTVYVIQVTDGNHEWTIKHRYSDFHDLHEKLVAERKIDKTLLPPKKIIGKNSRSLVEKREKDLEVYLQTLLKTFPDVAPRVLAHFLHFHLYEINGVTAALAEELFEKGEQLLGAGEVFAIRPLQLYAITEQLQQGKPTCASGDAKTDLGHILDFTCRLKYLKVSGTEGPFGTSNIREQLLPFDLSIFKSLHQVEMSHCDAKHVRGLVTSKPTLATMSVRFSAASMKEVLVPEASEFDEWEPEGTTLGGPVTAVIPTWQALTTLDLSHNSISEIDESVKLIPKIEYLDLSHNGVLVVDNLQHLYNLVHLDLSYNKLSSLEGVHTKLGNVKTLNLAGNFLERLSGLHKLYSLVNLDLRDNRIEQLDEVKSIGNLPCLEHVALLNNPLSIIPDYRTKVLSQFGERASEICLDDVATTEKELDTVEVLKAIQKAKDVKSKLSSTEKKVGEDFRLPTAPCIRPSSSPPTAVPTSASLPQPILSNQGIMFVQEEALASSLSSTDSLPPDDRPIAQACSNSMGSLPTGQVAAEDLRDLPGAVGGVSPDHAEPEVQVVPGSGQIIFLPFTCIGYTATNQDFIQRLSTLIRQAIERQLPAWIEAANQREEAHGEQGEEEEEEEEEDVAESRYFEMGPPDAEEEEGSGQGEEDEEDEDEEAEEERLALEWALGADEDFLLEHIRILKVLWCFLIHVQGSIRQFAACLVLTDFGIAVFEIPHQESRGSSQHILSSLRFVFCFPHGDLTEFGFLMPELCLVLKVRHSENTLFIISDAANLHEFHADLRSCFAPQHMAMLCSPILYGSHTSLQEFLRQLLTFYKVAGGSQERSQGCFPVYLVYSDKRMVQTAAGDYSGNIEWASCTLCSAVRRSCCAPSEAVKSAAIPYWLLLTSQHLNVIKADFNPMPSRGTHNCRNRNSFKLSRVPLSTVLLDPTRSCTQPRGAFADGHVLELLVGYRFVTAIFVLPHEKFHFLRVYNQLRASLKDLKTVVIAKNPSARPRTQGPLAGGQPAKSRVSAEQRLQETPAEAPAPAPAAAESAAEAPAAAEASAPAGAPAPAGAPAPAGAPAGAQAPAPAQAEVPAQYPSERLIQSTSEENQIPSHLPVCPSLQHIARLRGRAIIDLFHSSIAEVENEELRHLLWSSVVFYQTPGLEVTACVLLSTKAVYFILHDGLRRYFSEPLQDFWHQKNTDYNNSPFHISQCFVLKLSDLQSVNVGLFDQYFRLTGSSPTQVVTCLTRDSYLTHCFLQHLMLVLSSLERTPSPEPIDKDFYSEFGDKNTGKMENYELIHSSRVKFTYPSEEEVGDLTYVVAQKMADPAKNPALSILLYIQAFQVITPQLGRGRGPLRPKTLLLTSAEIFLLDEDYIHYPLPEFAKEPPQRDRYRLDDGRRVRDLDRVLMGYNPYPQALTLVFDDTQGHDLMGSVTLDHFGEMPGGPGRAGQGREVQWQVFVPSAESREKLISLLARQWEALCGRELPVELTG

Results are given in words; binding and its absence hold for the method and conditions named. Binding seen in cells or lysates may run through a third protein. Some entries that bind do so weakly or less than the wild type.

As for “Nischarin, endogenous in DIV14 hippocampal culture (from UniProt Q4G017 1-1502)”, the binding result is on record as “binds”.

For the origin of these results see PMC9010640.
